For at least one entry, the source does not settle the construct or the ends of the probe. For some of these results: A weaker result is weaker than the reference pair of the same experiment. For some of these results: At least one verdict rests on a figure or table, not on a statement of the authors. For some of these results: The direction of at least one scale is not stated here.
Assays:
[1] = test system: DP2 (1-1061) (Pyrococcus abyssi); experiment: fluorescence anisotropy; conditions: up to 6 uM protein, Fluorescence anisotropy: 20 mM sodium succinate pH 6, 100 mM NaCl, 25 C, 5 nM HEX-DNA, PolD up to 600 nM, DP2(1-1061) up to 6 uM, recombinant protein
[2] = test system: PolD DP1 H451A (exonuclease-deficient small subunit) + PolD DP2 (large catalytic subunit); experiment: fluorescence anisotropy; conditions: Fluorescence anisotropy: 20 mM sodium succinate pH 6, 100 mM NaCl, 25 C, 5 nM HEX-DNA, PolD up to 600 nM, DP2(1-1061) up to 6 uM; recombinant protein; protein details: N-terminal 14xHis, TEV-cleaved; single-stranded DNA

Chains of the proteins cited; added tags and fusions are not shown. A line that says so, or that is headed by a name, gives the form on record, which may keep a tag or linker.
PolD DP1 H451A (exonuclease-deficient small subunit) + PolD DP2 (large catalytic subunit), one chain, as listed by the source H451A, chain 1 of 3: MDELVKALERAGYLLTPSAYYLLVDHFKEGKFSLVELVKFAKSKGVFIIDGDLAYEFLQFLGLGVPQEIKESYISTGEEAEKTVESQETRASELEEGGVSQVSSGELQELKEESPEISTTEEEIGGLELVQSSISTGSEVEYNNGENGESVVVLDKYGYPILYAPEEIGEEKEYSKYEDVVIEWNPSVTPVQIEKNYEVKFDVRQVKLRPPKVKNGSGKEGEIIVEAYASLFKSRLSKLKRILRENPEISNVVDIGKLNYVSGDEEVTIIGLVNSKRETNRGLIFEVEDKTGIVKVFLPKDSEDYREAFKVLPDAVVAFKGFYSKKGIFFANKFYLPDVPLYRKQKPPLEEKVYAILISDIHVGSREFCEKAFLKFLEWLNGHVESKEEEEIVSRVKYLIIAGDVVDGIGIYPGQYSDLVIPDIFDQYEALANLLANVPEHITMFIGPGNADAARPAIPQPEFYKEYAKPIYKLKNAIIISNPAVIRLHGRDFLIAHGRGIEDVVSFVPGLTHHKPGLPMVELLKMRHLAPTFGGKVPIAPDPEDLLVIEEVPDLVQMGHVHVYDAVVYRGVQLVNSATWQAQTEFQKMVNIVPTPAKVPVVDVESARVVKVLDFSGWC

Sequence | binding result ([1]; single-stranded DNA) | binding signal (fold weaker Kd than primer-template) [2] | binding result [1]
AGGTCGTGCACGGCTCGGCCCGGCG [HEX ssDNA (template strand)] | binds more weakly | 2.4 | 
CGCCGGGCCGAGCCGTGC / AGGTCGTGCACGGCTCGGCCCGGCG [HEX primer/template] |  |  | binds more weakly
CGCCGGGCCGAGCCGTGCACGACCT (double strand) [HEX dsDNA] |  |  | binds more weakly

— paper PMC6355029, “Structure of the DP1–DP2 PolD complex bound with DNA and its implications for the evolutionary history of DNA and RNA polymerases”
